PubChem BioAssay AID504744 | Drosophila RNAi Screening Center – 2011

Test: 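Uncover factors, including feedback loops, that control dAkt activation in fly cells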 (primary screen)
Cell system: Drosophila Kc167 cells
Knock-down reagent: long dsRNA against Drosophila genes, 250 ng dsRNA per well of a 384-well plate
Duration: 3 days of knock-down, then overnight serum-free starvation before stimulation
Conditions: bovine insulin at 387 nM for 10 minutes after 12 h without serum
Measurement: 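Per-well phospho-dAkt level from an in-cell fluorescent antibody stain, divided by a DNA-dye signal; log2 residuals turned into z-scores that take cell number into account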
Active means: 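Hit in the insulin screen when the two-replicate mean z-score is more extreme than plus or minus 2.5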
The deposit covers about 23,000 reagents; below is a random part of those that have a named target and a result. Of all reagents, 98 (0.43%) were called active. 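Only hit calls are given; the phospho-dAkt signals, z-scores and hit direction were not deposited.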 Names joined by + are all predicted targets of the reagent. No sequences are given here.

Gene	amplicon	outcome
CG43328	DRSC05640	inactive
obst-I	DRSC08339	inactive
SCAP	DRSC04869	inactive
SCAP	DRSC04907	inactive
Jon65Aiv	DRSC10644	inactive
CG4362	DRSC15567	inactive
yellow-e2	DRSC15169	inactive
CG34040	DRSC03902	inactive
CG34305	DRSC11995	inactive
CG17350	DRSC02611	inactive
Ddx1	DRSC11862	inactive
Tdc2	DRSC04999	inactive
CG2258	DRSC18222	inactive
Scp1	DRSC20799	inactive
Scp1	DRSC20803	inactive
Scp1	DRSC20806	inactive
Semp1	DRSC01874	inactive
disp	DRSC12376	inactive
CG13594	DRSC04229	inactive
Manf	DRSC14091	inactive
ACC	DRSC06059	inactive
ACC	DRSC07249	inactive
mAcon2	DRSC15629	inactive
Alg13	DRSC14864	inactive
trsn	DRSC06078	inactive
CG18418	DRSC08535	inactive
CG3224	DRSC18295	inactive
CG12567	DRSC20845	inactive
CG33140	DRSC06030	inactive
Gpat4	DRSC04345	inactive
Dhpr	DRSC11135	inactive
Pka-C1	DRSC03399	inactive
CG42780	DRSC17514	inactive
Glys	DRSC16130	inactive
CG3223	DRSC15468	inactive
Lap1	DRSC07454	inactive
CG5281	DRSC15761	inactive
p23	DRSC15158	inactive
betaTub97EF	DRSC15666	inactive
betaTub97EF	DRSC15667	inactive
betaTub97EF	DRSC15668	inactive
CG7991	DRSC08609	inactive
CG10710	DRSC09784	inactive
Pkd2	DRSC02962	inactive
l(3)psg2	DRSC10484	inactive
Mayo	DRSC14300	inactive
Galt	DRSC03161	inactive
CG18420	DRSC01954	inactive
Mst57Dc	DRSC16745	inactive
CG5854	DRSC15894	inactive
CG34347	DRSC14047	inactive
CG34347	DRSC14305	inactive
CG34347	DRSC15104	inactive
CG34347	DRSC15105	inactive
CG14968	DRSC08427	inactive
aux	DRSC12161	inactive
Jhbp12	DRSC14621	inactive
Gem4b + Gem4c	DRSC17294	inactive
CG8112	DRSC16377	inactive
msps	DRSC17004	inactive
CG11703	DRSC14356	inactive
CG14495	DRSC06466	inactive
CG5504	DRSC04701	inactive
mthl9	DRSC08506	inactive
CG18596	DRSC15355	inactive
TTLL5	DRSC14181	inactive
CG14082	DRSC10086	inactive
hll	DRSC01944	inactive
Tsf2	DRSC09751	inactive
CG15473	DRSC18056	inactive
Adh + Adhr	DRSC01862	inactive
Adh + Adhr	DRSC01863	inactive
CG4301	DRSC19886	inactive
Mgat4a	DRSC09326	inactive
Mgat4a	DRSC11070	inactive
CG17270	DRSC15209	inactive
CG34012	DRSC09089	inactive
CG18598	DRSC15356	inactive
Hsp67Bc	DRSC11193	inactive
Scamp	DRSC20286	inactive
CG13243	DRSC01920	inactive
CG40006	DRSC03787	inactive
CG40006	DRSC03809	inactive
CG40006	DRSC03814	inactive
CG40006	DRSC03817	inactive
128up	DRSC05027	inactive
L	DRSC06666	inactive
L	DRSC06668	inactive
Axn	DRSC14120	inactive
CG14186	DRSC10185	inactive
jhamt	DRSC01985	inactive
CG5937	DRSC18392	inactive
CG34445	DRSC22404	inactive
CG13455	DRSC10002	inactive
Oda	DRSC07626	inactive
CG31211	DRSC14953	inactive
CG31211	DRSC15344	inactive
CG31211	DRSC21478	inactive
CG31867	DRSC03338	inactive
sit	DRSC15760	inactive
CG14280	DRSC14761	inactive
fd3F (retired record)	DRSC17843	inactive
Rab23	DRSC12305	inactive
Sid	DRSC16588	inactive
Wdr24	DRSC14151	inactive
drongo	DRSC00814	inactive
Act79B	DRSC11604	inactive
disco	DRSC20323	inactive
Muc26B	DRSC02322	inactive
CG15912	DRSC18105	inactive
CG7695	DRSC16289	inactive
Obsc	DRSC04301	inactive
Obsc	DRSC04302	inactive
Obsc	DRSC04303	inactive
Obsc	DRSC04430	active
Obsc	DRSC22422	inactive
UbcE2H	DRSC18221	inactive
Ilp8	DRSC10076	inactive
CG7573	DRSC10884	inactive
CG32344	DRSC08578	inactive
robl	DRSC07674	inactive
CG5704	DRSC08572	inactive
Cpr62Bc	DRSC08545	inactive
CG14892	DRSC15014	inactive
poe	DRSC03593	inactive
CG15784	DRSC18090	inactive
GABA-B-R1	DRSC22038	inactive
CG34330	DRSC20043	inactive
Hydr2	DRSC00607	inactive
CG32199	DRSC09990	inactive
wuc	DRSC06152	inactive
lncRNA:sphinx + ATPsynF	DRSC17191	inactive
Ssl2	DRSC14395	inactive
Ssl2	DRSC22796	inactive
Uxt	DRSC01962	inactive
CG9967	DRSC00742	inactive
betaCOP	DRSC20312	inactive
LManVI	DRSC03224	inactive
CG31606	DRSC01012	inactive
CG7990	DRSC19296	inactive
CG7990	DRSC20069	inactive
CG16898	DRSC06635	inactive
CG7099	DRSC03006	inactive
CG8814	DRSC00707	inactive
HmgD	DRSC04619	inactive
scrt	DRSC08736	inactive
Gr33a	DRSC02589	inactive
CG18823	DRSC18168	inactive
PolA1	DRSC16640	inactive
zld	DRSC19486	inactive
zld	DRSC21721	inactive
hkb	DRSC12377	inactive
CG5116	DRSC15720	inactive
Pect	DRSC02867	inactive
Pect	DRSC02868	inactive
CG5235	DRSC10494	inactive
CG5767	DRSC06953	inactive
